Laboratory results taken from publication PMC8079276.
Results are given in words; binding and its absence hold for the method and conditions named. Binding seen in cells or lysates may run through a third protein. A yes stands for co-enrichment or nearness to the bait. Other partners may have been found. Sequences can lack the tags named with a protein. Blank lines part the entries; values can stand above or below the binder they belong to.

Biological target: T1, UDP-N-acetylglucosamine-peptide N-acetylglucosaminyltransferase (mouse (endogenous in MEFs)) (UniProt Q8CGY8)
T1 sequence: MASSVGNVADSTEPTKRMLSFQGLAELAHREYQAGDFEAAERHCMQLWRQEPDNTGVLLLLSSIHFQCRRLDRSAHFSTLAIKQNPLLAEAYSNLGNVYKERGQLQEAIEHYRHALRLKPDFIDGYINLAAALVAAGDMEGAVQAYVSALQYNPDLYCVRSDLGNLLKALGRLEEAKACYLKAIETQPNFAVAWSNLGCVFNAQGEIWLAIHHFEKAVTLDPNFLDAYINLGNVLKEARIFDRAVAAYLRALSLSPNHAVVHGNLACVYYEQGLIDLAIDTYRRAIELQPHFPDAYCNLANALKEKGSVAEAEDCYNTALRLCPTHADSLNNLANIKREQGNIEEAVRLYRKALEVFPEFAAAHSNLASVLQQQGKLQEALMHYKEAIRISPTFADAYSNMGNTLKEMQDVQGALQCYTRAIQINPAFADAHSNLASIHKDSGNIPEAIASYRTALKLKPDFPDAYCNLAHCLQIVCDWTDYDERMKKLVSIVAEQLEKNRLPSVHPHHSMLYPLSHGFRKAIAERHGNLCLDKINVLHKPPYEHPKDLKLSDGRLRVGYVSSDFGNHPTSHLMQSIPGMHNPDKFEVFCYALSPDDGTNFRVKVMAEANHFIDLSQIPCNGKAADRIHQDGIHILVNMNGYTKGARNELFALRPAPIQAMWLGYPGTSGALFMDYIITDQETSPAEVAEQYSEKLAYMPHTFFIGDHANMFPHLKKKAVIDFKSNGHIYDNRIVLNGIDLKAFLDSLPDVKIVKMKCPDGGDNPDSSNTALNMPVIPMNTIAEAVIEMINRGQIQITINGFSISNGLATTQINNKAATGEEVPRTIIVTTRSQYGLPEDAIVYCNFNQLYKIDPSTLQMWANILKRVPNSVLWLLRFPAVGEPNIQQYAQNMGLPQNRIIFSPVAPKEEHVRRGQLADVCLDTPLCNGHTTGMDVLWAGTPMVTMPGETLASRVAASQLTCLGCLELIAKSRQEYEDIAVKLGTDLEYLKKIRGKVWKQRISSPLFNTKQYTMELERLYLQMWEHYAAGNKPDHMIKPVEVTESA
Assay: affinity purification with mass spectrometry; endogenous OGT immunoprecipitated (antibody AL24, protein G magnetic beads, TCL buffer: 50 mM Tris HCl, 150 mM NaCl, pH 7.5, 1% NP-40, 2 mM EDTA) from a 1:1:1 mix of SILAC-labelled lysates of WT, H2O2-treated (2.5 mM, 1.5 h) and OGT-null MEFs, precleared with rabbit IgG; in-gel trypsin digestion, LC-MS/MS; interactor if log2 WT or H2O2/null >=1 in 2 or more replicates

binding: binds
B1: Starch-binding domain-containing protein 1 (protein, UniProt Q8C7E7 1-338)
chain: MGAVWSALLVGGGLAGALILWLLRGDSGAPGKDGVAEPPQKGAPPGEAAAPGDGPGGGGSGGLSPEPSDRELVSKAEHLRESNGHLISESKDLGNLPEAQRLQNVGADWVNAREFVPVGKIPDTHSRADSEAARNQSPGSHGGEWRLPKGQETAVKVAGSVAAKLPSSSLLVDRAKAVSQDQAGHEDWEVVSRHSSWGSVGLGGSLEASRLSLNQRMDDSTNSLVGGRGWEVDGKVASLKPQQVSIQFQVHYTTNTDVQFIAVTGDHESLGRWNTYIPLHYCKDGLWSHSVFLPADTVVEWKFVLVENKEVTRWEECSNRFLQTGHEDKVVHGWWGIH

binding: binds
B2: Tnpo1 (protein, UniProt Q8BFY9 1-898)
chain: MVWDRQTKMEYEWKPDEQGLQQILQLLKESQSPDTTIQRTVQQKLEQLNQYPDFNNYLIFVLTKLKSEDEPTRSLSGLILKNNVKAHFQNFPNGVTDFIKSECLNNIGDSSPLIRATVGILITTIASKGELQNWPDLLPKLCSLLDSEDYNTCEGAFGALQKICEDSAEILDSDVLDRPLNIMIPKFLQFFKHSSPKIRSHAVACVNQFIISRTQALMLHIDSFIENLFALAGDEEAEVRKNVCRALVMLLEVRMDRLLPHMHNIVEYMLQRTQDQDENVALEACEFWLTLAEQPICKDVLVRHLPKLIPVLVNGMKYSDIDIILLKGDVEEDETIPDSEQDIRPRFHRSRTVAQQHEEDGIEEEDDDDDEIDDDDTISDWNLRKCSAAALDVLANVYRDELLPHILPLLKELLFHHEWVVKESGILVLGAIAEGCMQGMIPYLPELIPHLIQCLSDKKALVRSITCWTLSRYAHWVVSQPPDTYLKPLMTELLKRILDSNKRVQEAACSAFATLEEEACTELVPYLAYILDTLVFAFSKYQHKNLLILYDAIGTLADSVGHHLNKPEYIQMLMPPLIQKWNMLKDEDKDLFPLLECLSSVATALQSGFLPYCEPVYQRCVNLVQKTLAQAMLNNAQPEQYEAPDKDFMIVALDLLSGLAEGLGGNIEQLVARSNILTLMYQCMQDKMPEVRQSSFALLGDLTKACFQHVKPCIADFMPILGTNLNPEFISVCNNATWAIGEISIQMGIEMQPYIPMVLHQLVEIINRPNTPKTLLENTAITIGRLGYVCPQEVAPMLQQFIRPWCTSLRNIRDNEEKDSAFRGICTMISVNPSGVIQDFIFFCDAVASWINPKDDLRDMFCKILHGFKNQVGDENWRRFSDQFPLPLKERLAAFYGV
